The target in assay [1] is T1, TRAF1 (UniProt Q13077).
T1 sequence (looked up): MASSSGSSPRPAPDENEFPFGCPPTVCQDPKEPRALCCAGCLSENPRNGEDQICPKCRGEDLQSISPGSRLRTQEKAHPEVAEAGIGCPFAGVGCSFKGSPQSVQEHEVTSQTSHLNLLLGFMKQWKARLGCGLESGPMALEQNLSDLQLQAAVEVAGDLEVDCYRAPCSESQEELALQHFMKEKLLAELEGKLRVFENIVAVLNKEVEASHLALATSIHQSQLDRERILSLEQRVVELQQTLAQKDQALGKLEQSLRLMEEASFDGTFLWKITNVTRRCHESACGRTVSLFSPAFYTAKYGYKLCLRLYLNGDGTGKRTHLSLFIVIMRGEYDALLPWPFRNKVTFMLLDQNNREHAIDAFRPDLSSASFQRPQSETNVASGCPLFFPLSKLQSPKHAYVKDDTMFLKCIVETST
Put plainly: yeast two-hybrid, deletion mutant.

Chains of the proteins cited; added tags and fusions are not shown. Lines headed by an entry give the natural chain unless they say otherwise; changes in a name come on top.
UniProt Q13489: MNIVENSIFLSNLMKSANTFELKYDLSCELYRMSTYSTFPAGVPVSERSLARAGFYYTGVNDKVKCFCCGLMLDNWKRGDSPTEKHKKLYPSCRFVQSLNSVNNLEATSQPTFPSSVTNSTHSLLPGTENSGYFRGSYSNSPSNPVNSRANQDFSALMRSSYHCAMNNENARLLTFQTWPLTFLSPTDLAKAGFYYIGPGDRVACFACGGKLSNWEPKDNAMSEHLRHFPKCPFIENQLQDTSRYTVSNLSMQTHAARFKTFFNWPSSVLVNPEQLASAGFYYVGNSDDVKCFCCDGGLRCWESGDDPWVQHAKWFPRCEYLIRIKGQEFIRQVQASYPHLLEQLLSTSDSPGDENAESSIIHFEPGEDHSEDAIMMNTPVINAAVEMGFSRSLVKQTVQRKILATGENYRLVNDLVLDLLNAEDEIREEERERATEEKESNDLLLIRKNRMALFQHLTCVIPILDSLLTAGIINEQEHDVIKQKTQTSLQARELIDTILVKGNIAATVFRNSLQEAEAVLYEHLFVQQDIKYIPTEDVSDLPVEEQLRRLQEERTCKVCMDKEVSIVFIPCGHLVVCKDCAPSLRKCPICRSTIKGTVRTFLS
UniProt Q13490: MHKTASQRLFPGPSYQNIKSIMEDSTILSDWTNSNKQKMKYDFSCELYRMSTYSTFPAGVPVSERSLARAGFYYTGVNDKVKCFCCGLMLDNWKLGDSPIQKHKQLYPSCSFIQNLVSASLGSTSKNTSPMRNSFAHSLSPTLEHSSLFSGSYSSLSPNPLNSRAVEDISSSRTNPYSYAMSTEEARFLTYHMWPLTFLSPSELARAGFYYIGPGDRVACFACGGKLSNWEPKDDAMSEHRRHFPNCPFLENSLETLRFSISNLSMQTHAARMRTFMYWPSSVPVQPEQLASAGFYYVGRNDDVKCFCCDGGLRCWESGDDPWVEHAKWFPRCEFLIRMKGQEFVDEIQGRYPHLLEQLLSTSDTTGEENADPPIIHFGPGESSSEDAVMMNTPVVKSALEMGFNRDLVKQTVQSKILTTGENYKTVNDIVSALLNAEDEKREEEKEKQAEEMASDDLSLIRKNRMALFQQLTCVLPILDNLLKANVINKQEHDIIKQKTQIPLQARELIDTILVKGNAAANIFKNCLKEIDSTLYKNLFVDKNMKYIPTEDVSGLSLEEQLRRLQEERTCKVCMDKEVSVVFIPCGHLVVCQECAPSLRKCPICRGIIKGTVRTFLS

Assay [2] addresses T1, TRAF1. Put plainly: yeast two-hybrid.

No constants are given. Whether binding was seen depends on the method and setting. Some binding calls cover weakened binding; strength is not graded here.

“N-terminal half of c-IAP2 containing the three BIR motifs (amino acids 1-396 of c-IAP2) (from UniProt Q13489 1-396)”: the binding entry in assay [1] is on record as “binds”.

“N-terminal half of c-IAP1 containing the three BIR motifs (amino acids 1-336 of c-IAP1) (from UniProt Q13490 1-336)”: the binding entry in assay [1] is “binds”. In the case of “human cellular inhibitor of apoptosis protein 2 (c-IAP2) (from UniProt Q13489 1-604)”, the binding entry in assay [2] is on record as “binds”.

(Values after US6855815 (Amgen, dated 2005).)
